# The supplement of paper PMC8728848
# This is one part of the list.
# B1: AT5G17240(42) (Arabidopsis thaliana), Q6NQJ8 (protein)
# chain: MDLEHQTMETFLRWAAEIGISDSIDSSRFRDSCLGHSLSVSDFPDAGGRGLGAARELKKGELVLKVPRKALMTTESIIAKDLKLSDAVNLHNSLSSTQILSVCLLYEMSKEKKSFWYPYLFHIPRDYDLLATFGNFEKQALQVEDAVWATEKATAKCQSEWKEAGSLMKELELKPKFRSFQAWLWASATISSRTLHVPWDSAGCLCPVGDLFNYDAPGDYSNTPQGPESANNVEEAGLVVETHSERLTDGGFEEDVNAYCLYARRNYQLGEQVLLCYGTYTNLELLEHYGFMLEENSNDKVFIPLETSLFSLASSWPKDSLYIHQDGKLSFALISTLRLWLIPQSQRDKSVMRLVYAGSQISVKNEILVMKWMSEKCGSVLRDLPTSVTEDTVLLHNIDKLQDPELRLEQKETEAFGSEVRAFLDANCLWDVTVLSGKPIEFSRKTSRMLSKWRWSVQWRLSYKRTLADCISYCNEKMNNLLGTQDRLRDL
# What was measured:
# Experiment in all cases: glycan array binding signal (z-score within array); higher = stronger binding
# Conditions in all cases: glycan notation: IUPAC condensed, linker removed
# [1] = target: Gal6S(b1-4)Glc
# Outline: (§1)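 The binding signal is a Z-score computed within each array and averaged over linkers. Arrays of the same protein sequence at different concentrations or buffers were also averaged together. Data originate from 3228 arrays in the Consortium for Functional Glycomics database, kept only where the protein sequence was available.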
# [2] = target: Gal6S(b1-4)Glc6S
# Outline: as §1
# [3] = target: Gal6S(b1-4)GlcNAc
# Outline: as §1
# [4] = target: Gal6S(b1-4)GlcNAc6S
# Outline: as §1
# [5] = target: GalNAc(a1-3)Gal
# Outline: as §1
# [6] = target: GalNAc(a1-3)GalNAc
# Outline: as §1
# [7] = target: GalNAc(a1-3)GalNAc(b1-3)Gal(a1-4)Gal(b1-4)Glc
# Outline: as §1
# [8] = target: GalNAc(a1-3)GalNAc(b1-3)Gal(a1-4)Gal(b1-4)GlcNAc
# Outline: as §1
# [9] = target: GalNAc(b1-3)Gal
# Outline: as §1
# [10] = target: GalNAc(b1-3)Gal(a1-4)Gal(b1-4)GlcNAc
# Outline: as §1
# [11] = target: GalNAc(b1-3)Gal(a1-4)Gal(b1-4)GlcNAc(b1-3)Gal(b1-4)Glc
# Outline: as §1
# [12] = target: GalNAc(b1-3)Gal(a1-6)Gal(b1-4)Glc
# Outline: as §1
# [13] = target: GalNAc(b1-3)GalNAc
# Outline: as §1
# [14] = target: GalNAc(b1-3)GlcNAc
# Outline: as §1
# [15] = target: GalNAc(b1-4)Gal(b1-4)Glc
# Outline: as §1
# [16] = target: GalNAc(b1-4)GlcNAc
# Outline: as §1
# [17] = target: GalNAc(b1-4)GlcNAc(b1-2)Man
# Outline: as §1
# [18] = target: GalNAc(b1-4)GlcNAc(b1-2)Man(a1-3)[GalNAc(b1-4)GlcNAc(b1-2)Man(a1-6)]Man(b1-4)GlcNAc(b1-4)GlcNAc
# Outline: as §1
# [19] = target: GalNAc(b1-4)GlcNAc(b1-3)GalNAc(b1-4)GlcNAc
# Outline: as §1
# [20] = target: GalNAc(b1-4)GlcNAc6S
# Outline: as §1
# [21] = target: GalNAc(b1-6)GalNAc
# Outline: as §1
# [22] = target: GalNAc3S(b1-4)GlcNAc
# Outline: as §1
# [23] = target: GalNAc3S(b1-4)GlcNAc3S
# Outline: as §1
# [24] = target: GalNAc3S(b1-4)[Fuc(a1-3)]GlcNAc
# Outline: as §1
# [25] = target: GalNAc4S6S(b1-4)GlcNAc
# Outline: as §1
# [26] = target: GalNAc6S(b1-4)GlcNAc
# Outline: as §1
# [27] = target: Glc(a1-4)Glc
# Outline: as §1
# [28] = target: Glc(a1-4)Glc(a1-4)Glc(a1-4)Glc
# Outline: as §1
# [29] = target: Glc(a1-6)Glc(a1-6)Glc
# Outline: as §1
# [30] = target: Glc(a1-6)Glc(a1-6)Glc(a1-6)Glc
# Outline: as §1
# [31] = target: Glc(b1-4)Glc
# Outline: as §1
# [32] = target: Glc(b1-6)Glc
# Outline: as §1
# [33] = target: GlcA(b1-3)Gal
# Outline: as §1
# [34] = target: GlcA(b1-3)GlcNAc
# Outline: as §1
# [35] = target: GlcA(b1-6)Gal
# Outline: as §1
# [36] = target: GlcA3S(b1-3)Gal(b1-4)GlcNAc(b1-2)Man
# Outline: as §1
# [37] = target: GlcA3S(b1-3)Gal(b1-4)GlcNAc(b1-3)Gal(b1-4)Glc
# Outline: as §1
binder,measurement,setting,value
B1,glycan array binding signal (z-score),[1],-0.21
same,glycan array binding signal (z-score),[2],0.264
same,glycan array binding signal (z-score),[3],0.729
same,glycan array binding signal (z-score),[4],0.553
same,glycan array binding signal (z-score),[5],0.613
same,glycan array binding signal (z-score),[6],-0.053
same,glycan array binding signal (z-score),[7],-0.268
same,glycan array binding signal (z-score),[8],-0.446
same,glycan array binding signal (z-score),[9],-0.561
same,glycan array binding signal (z-score),[10],3.08
same,glycan array binding signal (z-score),[11],-0.155
same,glycan array binding signal (z-score),[12],-0.456
same,glycan array binding signal (z-score),[13],-0.226
same,glycan array binding signal (z-score),[14],0.534
same,glycan array binding signal (z-score),[15],-0.525
same,glycan array binding signal (z-score),[16],8.25
same,glycan array binding signal (z-score),[17],-0.175
same,glycan array binding signal (z-score),[18],0.425
same,glycan array binding signal (z-score),[19],0.07
same,glycan array binding signal (z-score),[20],-0.15
same,glycan array binding signal (z-score),[21],-0.229
same,glycan array binding signal (z-score),[22],0.134
same,glycan array binding signal (z-score),[23],-0.54
same,glycan array binding signal (z-score),[24],-0.177
same,glycan array binding signal (z-score),[25],1.39
same,glycan array binding signal (z-score),[26],-0.134
same,glycan array binding signal (z-score),[27],0.098
same,glycan array binding signal (z-score),[28],0.025
same,glycan array binding signal (z-score),[29],0.448
same,glycan array binding signal (z-score),[30],-0.147
same,glycan array binding signal (z-score),[31],0.413
same,glycan array binding signal (z-score),[32],0.067
same,glycan array binding signal (z-score),[33],-0.785
same,glycan array binding signal (z-score),[34],-0.562
same,glycan array binding signal (z-score),[35],-0.334
same,glycan array binding signal (z-score),[36],0.218
same,glycan array binding signal (z-score),[37],-0.539

# A portion from further up, for reference:
binder,measurement,setting,value
B1,glycan array binding signal (z-score),[20],-0.15
same,glycan array binding signal (z-score),[21],-0.229
